Test results published in PMC11775196.

Chains of the proteins cited; added tags and fusions are not shown.
UniProt Q12857: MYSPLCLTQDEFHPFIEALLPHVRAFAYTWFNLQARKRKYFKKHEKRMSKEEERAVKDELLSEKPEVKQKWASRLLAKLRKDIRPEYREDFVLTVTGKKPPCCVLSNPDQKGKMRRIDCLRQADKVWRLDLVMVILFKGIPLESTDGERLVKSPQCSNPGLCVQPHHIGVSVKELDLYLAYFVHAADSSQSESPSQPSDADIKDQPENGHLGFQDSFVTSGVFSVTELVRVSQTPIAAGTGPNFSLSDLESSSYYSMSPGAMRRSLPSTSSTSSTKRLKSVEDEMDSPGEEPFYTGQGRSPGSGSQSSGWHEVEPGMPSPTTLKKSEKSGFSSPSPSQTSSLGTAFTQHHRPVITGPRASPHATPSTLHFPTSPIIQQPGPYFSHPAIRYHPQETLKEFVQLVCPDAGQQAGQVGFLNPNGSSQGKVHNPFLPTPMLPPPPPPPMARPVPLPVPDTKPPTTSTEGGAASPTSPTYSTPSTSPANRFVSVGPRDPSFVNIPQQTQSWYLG
UniProt P08651: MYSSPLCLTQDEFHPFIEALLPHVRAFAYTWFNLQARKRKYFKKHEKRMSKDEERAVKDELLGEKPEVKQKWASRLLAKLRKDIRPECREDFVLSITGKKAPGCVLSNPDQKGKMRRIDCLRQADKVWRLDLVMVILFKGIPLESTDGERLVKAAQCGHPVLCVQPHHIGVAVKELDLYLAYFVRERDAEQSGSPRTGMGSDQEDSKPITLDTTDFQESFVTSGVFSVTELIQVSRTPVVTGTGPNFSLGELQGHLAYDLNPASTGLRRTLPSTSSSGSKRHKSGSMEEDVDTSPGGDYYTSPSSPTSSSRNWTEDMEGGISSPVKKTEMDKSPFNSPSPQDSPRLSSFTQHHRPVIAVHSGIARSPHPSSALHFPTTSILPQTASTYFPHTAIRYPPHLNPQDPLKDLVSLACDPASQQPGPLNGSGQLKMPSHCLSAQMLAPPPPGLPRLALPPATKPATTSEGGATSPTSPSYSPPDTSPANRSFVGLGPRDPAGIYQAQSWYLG
UniProt Q12824: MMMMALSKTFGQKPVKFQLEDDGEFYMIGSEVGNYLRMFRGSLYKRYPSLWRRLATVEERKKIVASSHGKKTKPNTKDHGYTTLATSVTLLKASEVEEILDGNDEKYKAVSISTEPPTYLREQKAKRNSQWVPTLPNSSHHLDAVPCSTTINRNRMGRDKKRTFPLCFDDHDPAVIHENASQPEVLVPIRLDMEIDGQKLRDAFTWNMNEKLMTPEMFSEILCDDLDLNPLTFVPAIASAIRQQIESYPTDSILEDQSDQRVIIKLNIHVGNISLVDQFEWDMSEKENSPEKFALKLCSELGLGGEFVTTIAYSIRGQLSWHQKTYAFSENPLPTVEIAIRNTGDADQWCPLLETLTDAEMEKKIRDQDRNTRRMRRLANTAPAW
UniProt Q92922: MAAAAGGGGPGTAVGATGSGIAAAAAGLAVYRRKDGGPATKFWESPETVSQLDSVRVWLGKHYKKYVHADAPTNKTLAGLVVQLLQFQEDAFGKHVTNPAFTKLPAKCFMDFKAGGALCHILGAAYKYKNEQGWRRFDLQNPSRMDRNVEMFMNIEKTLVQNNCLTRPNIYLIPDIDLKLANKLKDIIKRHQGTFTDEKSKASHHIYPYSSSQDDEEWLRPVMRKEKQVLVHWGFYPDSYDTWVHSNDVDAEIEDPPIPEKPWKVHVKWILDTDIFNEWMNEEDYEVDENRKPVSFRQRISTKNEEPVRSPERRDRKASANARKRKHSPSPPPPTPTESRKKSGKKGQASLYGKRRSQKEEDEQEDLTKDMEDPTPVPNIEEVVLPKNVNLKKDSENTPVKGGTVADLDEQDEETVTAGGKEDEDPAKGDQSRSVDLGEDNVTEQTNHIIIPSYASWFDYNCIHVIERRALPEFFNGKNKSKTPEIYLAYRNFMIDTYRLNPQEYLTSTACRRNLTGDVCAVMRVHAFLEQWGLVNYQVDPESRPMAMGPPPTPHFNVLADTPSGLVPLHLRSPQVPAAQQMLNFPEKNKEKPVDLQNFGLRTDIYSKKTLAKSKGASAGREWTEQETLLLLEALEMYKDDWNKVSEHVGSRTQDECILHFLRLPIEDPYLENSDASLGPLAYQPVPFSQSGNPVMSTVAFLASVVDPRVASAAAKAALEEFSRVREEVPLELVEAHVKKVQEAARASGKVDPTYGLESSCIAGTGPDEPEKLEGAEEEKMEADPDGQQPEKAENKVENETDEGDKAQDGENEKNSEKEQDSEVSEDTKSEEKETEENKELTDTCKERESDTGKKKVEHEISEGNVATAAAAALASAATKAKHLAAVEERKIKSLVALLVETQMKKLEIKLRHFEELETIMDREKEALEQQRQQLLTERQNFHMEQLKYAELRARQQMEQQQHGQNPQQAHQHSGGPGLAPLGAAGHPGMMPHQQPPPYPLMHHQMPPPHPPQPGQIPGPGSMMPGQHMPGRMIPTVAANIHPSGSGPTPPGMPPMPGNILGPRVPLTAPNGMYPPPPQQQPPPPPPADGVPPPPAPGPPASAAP
UniProt Q969G3: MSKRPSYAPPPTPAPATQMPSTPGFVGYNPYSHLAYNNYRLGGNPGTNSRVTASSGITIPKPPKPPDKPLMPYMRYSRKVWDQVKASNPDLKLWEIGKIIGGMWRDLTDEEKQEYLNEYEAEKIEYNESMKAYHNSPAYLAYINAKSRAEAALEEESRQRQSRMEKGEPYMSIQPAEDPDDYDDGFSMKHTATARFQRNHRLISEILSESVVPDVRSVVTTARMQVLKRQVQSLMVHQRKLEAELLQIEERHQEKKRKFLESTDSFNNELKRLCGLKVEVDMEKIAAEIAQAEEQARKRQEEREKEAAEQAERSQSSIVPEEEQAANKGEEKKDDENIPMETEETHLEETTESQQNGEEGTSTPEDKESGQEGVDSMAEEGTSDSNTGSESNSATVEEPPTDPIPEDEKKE

Experiments:
[1] = target: MAC3-N-tagged NFIA (human) (UniProt Q12857); test: affinity purification with mass spectrometry; MAC3-N-tagged NFI baits in Flp-In T-REx 293 cells induced with 2 ug/ml tetracycline for 24 h; lysis in 50 mM HEPES pH 8.0, 5 mM EDTA, 150 mM NaCl, 50 mM NaF, 0.5% NP40; capture on Strep-Tactin beads, elution with biotin; HCIs at SAINT BFDR <=0.05 against MAC3-N-tagged GFP
[2] = target: MAC3-N-tagged NFIC (human) (UniProt P08651); test: as above
[3] = target: MAC3-N-tagged NFIB4 (human); test: proximity labelling; BioID with UltraID (MAC3-tag) on NFI baits in Flp-In T-REx 293 cells, 50 uM biotin for 16 h; lysis with 0.1% SDS and benzonase; Strep-Tactin beads; HCIs at SAINT BFDR <=0.01 against MAC3-N-tagged GFP

Molecule | binding [1] | binding [2] | binding [3]
SMARCB1 (from UniProt Q12824 1-385) | binds | binds | 
SMARCC1 (from UniProt Q92922 1-1105) | binds | binds | 
CPEB4 (protein, UniProt Q17RY0 1-729) MGDYGFGVLVQSNTGNKSAFPVRFHPHLQPPHHHQNATPSPAAFINNNTAANGSSAGSAWLFPAPATHNIQDEILGSEKAKSQQQEQQDPLEKQQLSPSPGQEAGILPETEKAKSEENQGDNSSENGNGKEKIRIESPVLTGFDYQEATGLGTSTQPLTSSASSLTGFSNWSAAIAPSSSTIINEDASFFHQGGVPAASANNGALLFQNFPHHVSPGFGGSFSPQIGPLSQHHPHHPHFQHHHSQHQQQRRSPASPHPPPFTHRNAAFNQLPHLANNLNKPPSPWSSYQSPSPTPSSSWSPGGGGYGGWGGSQGRDHRRGLNGGITPLNSISPLKKNFASNHIQLQKYARPSSAFAPKSWMEDSLNRADNIFPFPDRPRTFDMHSLESSLIDIMRAENDTIKGRLNYSYPGSDSSLLINARTYGRRRGQSSLFPMEDGFLDDGRGDQPLHSGLGSPHCFSHQNGERVERYSRKVFVGGLPPDIDEDEITASFRRFGPLIVDWPHKAESKSYFPPKGYAFLLFQDESSVQALIDACIEEDGKLYLCVSSPTIKDKPVQIRPWNLSDSDFVMDGSQPLDPRKTIFVGGVPRPLRAVELAMIMDRLYGGVCYAGIDTDPELKYPKGAGRVAFSNQQSYIAAISARFVQLQHGEIDKRVEVKPYVLDDQLCDECQGARCGGKFAPFFCANVTCLQYYCEYCWAAIHSRAGREFHKPLVKEGGDRPRHISFRWN |  |  | binds

Next, values leading:

binding [1] | binding [2] | binding [3] | Molecule
binds | binds |  | SMARCE1 (from UniProt Q969G3 1-411)
 |  | binds | TIA1 (protein, UniProt P31483 1-386) MEDEMPKTLYVGNLSRDVTEALILQLFSQIGPCKNCKMIMDTAGNDPYCFVEFHEHRHAAAALAAMNGRKIMGKEVKVNWATTPSSQKKDTSSSTVVSTQRSQDHFHVFVGDLSPEITTEDIKAAFAPFGRISDARVVKDMATGKSKGYGFVSFFNKWDAENAIQQMGGQWLGGRQIRTNWATRKPPAPKSTYESNTKQLSYDEVVNQSSPSNCTVYCGGVTSGLTEQLMRQTFSPFGQIMEIRVFPDKGYSFVRFNSHESAAHAIVSVNGTTIEGHVVKCYWGKETLDMINPVQQQNQIGYPQPYGQWGQWYGNAQQIGQYMPNGWQVPAYGMYGQAWNQQGFNQTQSSAPWMGPNYGVQPPQGQNGSMLPNQPSGYRVAGYETQ
 |  | binds | ESRP2 (protein, UniProt Q9H6T0 1-727) MTPPPPPPPPPGPDPAADPAADPCPWPGSLVVLFGATAGALGRDLGSDETDLILLVWQVVEPRSRQVGTLHKSLVRAEAAALSTQCREASGLSADSLARAEPLDKVLQQFSQLVNGDVALLGGGPYMLCTDGQQLLRQVLHPEASRKNLVLPDMFFSFYDLRREFHMQHPSTCPARDLTVATMAQGLGLETDATEDDFGVWEVKTMVAVILHLLKEPSSQLFSKPEVIKQKYETGPCSDSTVPCPYSSKADVVDSETVVRARGLPWQSSDQDVARFFKGLNVARGGVALCLNAQGRRNGEALIRFVDSEQRDLALQRHKHHMGVRYIEVYKATGEEFVKIAGGTSLEVARFLSREDQVILRLRGLPFSAGPTDVLGFLGPECPVTGGTEGLLFVRHPDGRPTGDAFALFACEELAQAALRRHKGMLGKRYIELFRSTAAEVQQVLNRYASGPLLPTLTAPLLPIPFPLAPGTGRDCVRLRGLPYTATIEDILSFLGEAAADIRPHGVHMVLNQQGRPSGDAFIQMTSAERALAAAQRCHKKVMKERYVEVVPCSTEEMSRVLMGGTLGRSGMSPPPCKLPCLSPPTYTTFQATPTLIPTETAALYPSSALLPAARVPAAPTPVAYYPGPATQLYLNYTAYYPSPPVSPTTVGYLTTPTAALASAPTSVLSQSGALVRMQGVPYTAGMKDLLSVFQAYQLPADDYTSLMPVGDPPRTVLQAPKEWVCL

Results are given in words; binding and its absence hold for the method and conditions named. Binding seen in cells or lysates may run through a third protein. Here binding means that the protein was enriched with, or labelled near, the bait; the list need not be complete.
